Measurements: US20180320217A1, “METHODS FOR SAMPLING AND MEASURING ORAL LAVAGE PROTEINS” (The Procter & Gamble Company, priority 2017, published 2018)

B1: AL9A1_HUMAN (protein, UniProt P49189 1-494, looked up)
4-trimethylaminobutyraldehyde …: MSTGTFVVSQPLNYRGGARVEPADASGTEKAFEPATGRVIATFTCSGEKEVNLAVQNAKAAFKIWSQKSGMERCRILLEAARIIREREDEIATMECINNGKSIFEARLDIDISWQCLEYYAGLAASMAGEHIQLPGGSFGYTRREPLGVCVGIGAWNYPFQIASWKSAPALACGNAMVFKPSPFTPVSALLLAEIYSEAGVPPGLFNVVQGGAATGQFLCQHPDVAKVSFTGSVPTGMKIMEMSAKGIKPVTLELGGKSPLIIFSDCDMNNAVKGALMANFLTQGQVCCNGTRVFVQKEILDKFTEEVVKQTQRIKIGDPLLEDTRMGPLINRPHLERVLGFVKVAKEQGAKVLCGGDIYVPEDPKLKDGYYMRPCVLTNCRDDMTCVKEEIFGPVMSILSFDTEAEVLERANDTTFGLAAGVFTRDIQRAHRVVAELQAGTCFINNYNVSPVELPFGGYKKSGFGRENGRVTIEYYSQLKTVCVEMGDVESAF
B2: NFH_HUMAN (protein, UniProt P12036 1-1020, looked up)
Neurofilament heavy …: MMSFGGADALLGAPFAPLHGGGSLHYALARKGGAGGTRSAAGSSSGFHSWTRTSVSSVSASPSRFRGAGAASSTDSLDTLSNGPEGCMVAVATSRSEKEQLQALNDRFAGYIDKVRQLEAHNRSLEGEAAALRQQQAGRSAMGELYEREVREMRGAVLRLGAARGQLRLEQEHLLEDIAHVRQRLDDEARQREEAEAAARALARFAQEAEAARVDLQKKAQALQEECGYLRRHHQEEVGELLGQIQGSGAAQAQMQAETRDALKCDVTSALREIRAQLEGHAVQSTLQSEEWFRVRLDRLSEAAKVNTDAMRSAQEEITEYRRQLQARTTELEALKSTKDSLERQRSELEDRHQADIASYQEAIQQLDAELRNTKWEMAAQLREYQDLLNVKMALDIEIAAYRKLLEGEECRIGFGPIPFSLPEGLPKIPSVSTHIKVKSEEKIKVVEKSEKETVIVEEQTEETQVTEEVTEEEEKEAKEEEGKEEEGGEEEEAEGGEEETKSPPAEEAASPEKEAKSPVKEEAKSPAEAKSPEKEEAKSPAEVKSPEKAKSPAKEEAKSPPEAKSPEKEEAKSPAEVKSPEKAKSPAKEEAKSPAEAKSPEKAKSPVKEEAKSPAEAKSPVKEEAKSPAEVKSPEKAKSPTKEEAKSPEKAKSPEKEEAKSPEKAKSPVKAEAKSPEKAKSPVKAEAKSPEKAKSPVKEEAKSPEKAKSPVKEEAKSPEKAKSPVKEEAKTPEKAKSPVKEEAKSPEKAKSPEKAKTLDVKSPEAKTPAKEEARSPADKFPEKAKSPVKEEVKSPEKAKSPLKEDAKAPEKEIPKKEEVKSPVKEEEKPQEVKVKEPPKKAEEEKAPATPKTEEKKDSKKEEAPKKEAPKPKVEEKKEPAVEKPKESKVEAKKEEAEDKKKVPTPEKEAPAKVEVKEDAKPKEKTEVAKKEPDDAKAKEPSKPAEKKEAAPEKKDTKEEKAKKPEEKPKTEAKAKEDDKTLSKEPSKPKAEKAEKSSSTDQKDSKPPEKATEDKAAKGK
B3: PRDX1_HUMAN (protein, UniProt Q06830 2-199, looked up)
Peroxiredoxin-1: SSGNAKIGHPAPNFKATAVMPDGQFKDISLSDYKGKYVVFFFYPLDFTFVCPTEIIAFSDRAEEFKKLNCQVIGASVDSHFCHLAWVNTPKKQGGLGPMNIPLVSDPKRTIAQDYGVLKADEGISFRGLFIIDDKGILRQITVNDLPVGRSVDETLRLVQAFQFTDKHGEVCPAGWKPGSDTIKPDVQKSKEYFSKQK
B4: PRDX2_HUMAN (protein, UniProt P32119 2-198, looked up)
Peroxiredoxin-2: ASGNARIGKPAPDFKATAVVDGAFKEVKLSDYKGKYVVLFFYPLDFTFVCPTEIIAFSNRAEDFRKLGCEVLGVSVDSQFTHLAWINTPRKEGGLGPLNIPLLADVTRRLSEDYGVLKTDEGIAYRGLFIIDGKGVLRQITVNDLPVGRSVDEALRLVQAFQYTDEHGEVCPAGWKPGSDTIKPNVDDSKEYFSKHN
B5: PRDX6_HUMAN (protein, UniProt P30041 2-224, looked up)
Peroxiredoxin-6: PGGLLLGDVAPNFEANTTVGRIRFHDFLGDSWGILFSHPRDFTPVCTTELGRAAKLAPEFAKRNVKLIALSIDSVEDHLAWSKDINAYNCEEPTEKLPFPIIDDRNRELAILLGMLDPAEKDEKGMPVTARVVFVFGPDKKLKLSILYPATTGRNFDEILRVVISLQLTAEKRVATPVDWKDGDSVMVLPTIPEEEAKKLFPKGVFTKELPSGKKYLRYTPQP
B6: PEX1_HUMAN (protein, UniProt O43933 1-1283, looked up)
Peroxisomal ATPase PEX1: MWGSDRLAGAGGGGAAVTVAFTNARDCFLHLPRRLVAQLHLLQNQAIEVVWSHQPAFLSWVEGRHFSDQGENVAEINRQVGQKLGLSNGGQVFLKPCSHVVSCQQVEVEPLSADDWEILELHAVSLEQHLLDQIRIVFPKAIFPVWVDQQTYIFIQIVALIPAASYGRLETDTKLLIQPKTRRAKENTFSKADAEYKKLHSYGRDQKGMMKELQTKQLQSNTVGITESNENESEIPVDSSSVASLWTMIGSIFSFQSEKKQETSWGLTEINAFKNMQSKVVPLDNIFRVCKSQPPSIYNASATSVFHKHCAIHVFPWDQEYFDVEPSFTVTYGKLVKLLSPKQQQSKTKQNVLSPEKEKQMSEPLDQKKIRSDHNEEDEKACVLQVVWNGLEELNNAIKYTKNVEVLHLGKVWIPDDLRKRLNIEMHAVVRITPVEVTPKIPRSLKLQPRENLPKDISEEDIKTVFYSWLQQSTTTMLPLVISEEEFIKLETKDGLKEFSLSIVHSWEKEKDKNIFLLSPNLLQKTTIQVLLDPMVKEENSEEIDFILPFLKLSSLGGVNSLGVSSLEHITHSLLGRPLSRQLMSLVAGLRNGALLLTGGKGSGKSTLAKAICKEAFDKLDAHVERVDCKALRGKRLENIQKTLEVAFSEAVWMQPSVVLLDDLDLIAGLPAVPEHEHSPDAVQSQRLAHALNDMIKEFISMGSLVALIATSQSQQSLHPLLVSAQGVHIFQCVQHIQPPNQEQRCEILCNVIKNKLDCDINKFTDLDLQHVAKETGGFVARDFTVLVDRAIHSRLSRQSISTREKLVLTTLDFQKALRGFLPASLRSVNLHKPRDLGWDKIGGLHEVRQILMDTIQLPAKYPELFANLPIRQRTGILLYGPPGTGKTLLAGVIARESRMNFISVKGPELLSKYIGASEQAVRDIFIRAQAAKPCILFFDEFESIAPRRGHDNTGVTDRVVNQLLTQLDGVEGLQGVYVLAATSRPDLIDPALLRPGRLDKCVYCPPPDQVSRLEILNVLSDSLPLADDVDLQHVASVTDSFTGADLKALLYNAQLEALHGMLLSSGLQDGSSSSDSDLSLSSMVFLNHSSGSDDSAGDGECGLDQSLVSLEMSEILPDESKFNMYRLYFGSSYESELGNGTSSDLSSQCLSAPSSMTQDLPGVPGKDQLFSQPPVLRTASQEGCQELTQEQRDQLRADISIIKGRYRSQSGEDESMNQPGPIKTRLAISQSHLMTALGHTRPSISEDDWKNFAELYESFQNPKRRKNQSGTMFRPGQKVTLA
B7: PGKl_HUMAN (protein, UniProt P00558 2-417, looked up)
Phosphoglycerate kinase 1: SLSNKLTLDKLDVKGKRVVMRVDFNVPMKNNQITNNQRIKAAVPSIKFCLDNGAKSVVLMSHLGRPDGVPMPDKYSLEPVAVELKSLLGKDVLFLKDCVGPEVEKACANPAAGSVILLENLRFHVEEEGKGKDASGNKVKAEPAKIEAFRASLSKLGDVYVNDAFGTAHRAHSSMVGVNLPQKAGGFLMKKELNYFAKALESPERPFLAILGGAKVADKIQLINNMLDKVNEMIIGGGMAFTFLKVLNNMEIGTSLFDEEGAKIVKDLMSKAEKNGVKITLPVDFVTADKFDENAKTGQATVASGIPAGWMGLDCGPESSKKYAEAVTRAKQIVWNGPVGVFEWEAFARGTKALMDEVVKATSRGCITIIGGGDTATCCAKWNTEDKVSHVSTGGGASLELLEGKVLPGVDALSNI
B8: CH60_HUMAN (protein, UniProt P10809 27-573, looked up)
60 kDa heat shock protein, …: AKDVKFGADARALMLQGVDLLADAVAVTMGPKGRTVIIEQSWGSPKVTKDGVTVAKSIDLKDKYKNIGAKLVQDVANNTNEEAGDGTTTATVLARSIAKEGFEKISKGANPVEIRRGVMLAVDAVIAELKKQSKPVTTPEEIAQVATISANGDKEIGNIISDAMKKVGRKGVITVKDGKTLNDELEIIEGMKFDRGYISPYFINTSKGQKCEFQDAYVLLSEKKISSIQSIVPALEIANAHRKPLVIIAEDVDGEALSTLVLNRLKVGLQVVAVKAPGFGDNRKNQLKDMAIATGGAVFGEEGLTLNLEDVQPHDLGKVGEVIVTKDDAMLLKGKGDKAQIEKRIQEIIEQLDVTTSEYEKEKLNERLAKLSDGVAVLKVGGTSDVEVNEKKDRVTDALNATRAAVEEGIVLGGGCALLRCIPALDSLTPANEDQKIGIEIIKRTLKIPAMTIAKNAGVEGSLIVEKIMQSSSEVGYDAMAGDFVNMVEKGIIDPTKVVRTALLDAAGVASLLTTAEVVVTEIPKEEKDPGMGAMGGMGGGMGGGMF
B9: PSG8_HUMAN (protein, UniProt Q9UQ74 35-426, looked up)
Pregnancy-specific …: QVTIEAQPTKVSEGKDVLLLVHNLPQNLTGYIWYKGQIRDLYHYITSYVVDGQIIIYGPAYSGRETIYSNASLLIQNVTQEDAGSYTLHIIMGGDENRGVTGHFTFTLYLETPKPSISSSKLNPREAMEAVSLTCDPETPDASYLWWMNGQSLPMSHRLQLSETNRTLFLLGVTKYTAGPYECEIRNPVSASRSDPFTLNLLPKLPKPYITINNLKPRENKDVLNFTCEPKSENYTYIWWLNGQSLPVSPRVKRPIENRILILPSVTRNETGPYQCEIRDQYGGIRSYPVTLNVLYGPDLPRIYPSFTYYRSGEVLYLSCSADSNPPAQYSWTINGKFQLSGQKLFIPQITTKHSGLYACSVRNSATGKESSKSMTVKVSGKRIPVSLAIGI

System: peptides in gingival brush samples
Experiment: Protein and peptide profiling of gingival brush samples (LC-MS/MS), TABLE 23
Assay type: in vivo, human
Settings: peptide abundance, gingival brush samples; for Mean Cntl Bsl / Mean Cntl Wk3: control regimen; for Mean Cntl Bsl / Mean TrtBsl: baseline; for Mean Cntl Wk3 / Mean TrtWk3: week 3; for Mean TrtBsl / Mean TrtWk3: treatment regimen

Molecule	Mean Cntl Bsl	Mean Cntl Wk3	Mean TrtBsl	Mean TrtWk3
B1	4689.8	8624.4	5984.7	8802.5
B2	8545.7	5412.1	11145.3	2920.2
B3	16697.8	26985.8	14423.1	30893.5
B4	2938.5	6338.7	4840.4	9887.5
B5	1477.7	2558.2	1376.3	2985.7
B6	2581.7	2565.0	1326.8	2861.3
B7	4884.9	5952.9	5340.0	8397.1
B8	10415.4	17103.0	11806.1	18455.9
B9	8855.0	11333.1	7117.7	13237.7
